Measured values taken from PubChem BioAssay AID540256 (National Center for Advancing Translational Sciences (NCATS), 2011).
Several values for one entry are separate records, joined by “and”; a condition that tells them apart may be missing. Equal entries are not always repeated. Screen size: about 300,000 compounds; about 3,700 (1.2%) were called active. The inconclusive results got no clear call from the source; some entries with a clear call stand among them for comparison. Calls follow the shape of the full dose curve; tested in HEK293 cells. Where the call is inconclusive, the potency comes from a doubtful curve fit.

experiment: qHTS for Inhibitors of binding or entry into cells for Lassa Virus; conditions: Lassa virus pseudotype entry inhibition, cell reporter; series mostly up to 37.9 µM; also: nearly all actives have a fitted effect of over 50% in size
Potency is read from the fitted curve at half-maximal effect.

| SMILES | Potency |
| --- | --- |
| CCOC(=O)c1sc(NC(=O)Nc2ccccc2)cc1C | active: 14.1 µM |
| COC(=O)Cn1cnc2sc(C)c(S(=O)(=O)N3CCN(c4ccccc4OC)CC3)c2c1=O | inconclusive: 3.26 µM [activator, partial curve, poor fit] |
| COc1ccccc1N1CCN(S(=O)(=O)c2ccc3nc(-c4ccccc4)[nH]c3c2)CC1 | inconclusive: 32.6 µM [inhibitor, single point] and inconclusive: 1.26 µM [activator, single point] |
| CCOc1ccc(-c2nc(CSCC(=O)NCc3ccco3)c(C)o2)cc1 | inconclusive: 7.08 µM [inhibitor, full curve, poor fit] |
| COc1ccc(CCNC2=C(Cl)C(=O)N(CCc3ccc(OC)c(OC)c3)C2=O)cc1OC | inconclusive: 4.47 µM [inhibitor, full curve, poor fit] |
| S=C(NCc1cccnc1)Nc1ccc(Cl)cc1 | inactive |
| CC(C)Sc1nc2sc3c(c2c2nnc(SCC(=O)NCc4ccco4)n12)CCCC3 | inconclusive: 11.2 µM [inhibitor, partial curve, poor fit] |
| C/C(=N\Nc1cccc([N+](=O)[O-])c1)c1cc2ccccc2o1 | inactive |
| CC1CCC2(CC1)NC(=O)N(CC(=O)Nc1nc(-c3ccc(F)cc3)cs1)C2=O (stereo not drawn) | inactive |
| Cc1nonc1C(=O)N/N=C/c1ccccc1 | inactive |
| C=CCn1c(SCC(=O)NC23CC4CC(CC(C4)C2)C3)nc2cc(C(=O)O)ccc2c1=O | inactive |
| O=C(CC(=O)c1ccccc1)CC(O)(C=Cc1ccccc1)c1ccccc1 (stereo not drawn) | inactive |
| COc1ccc2nc(C)cc(SCC(=O)N/N=C/c3ccccc3)c2c1 | inconclusive: 3.16 µM [inhibitor, single point] |
| CC(C)CNC(=O)CSc1ccc(S(=O)(=O)N(C)C2CCCCC2)cn1 | inconclusive: 17.8 µM [inhibitor, partial curve, poor fit] |
| O=C(NCc1ccco1)C1CCC(N2C(=O)c3ccccc3C2=O)CC1 (stereo not drawn) | inconclusive: 6.51 µM [inhibitor, single point] |
| O=C(COC(=O)CC1CC2CCC1C2)NC(=O)NC1CCCC1 (stereo not drawn) | inconclusive: 2.24 µM [inhibitor, partial curve, poor fit] |
| S=C(NCc1ccccc1)Nc1ccncc1 | inconclusive: 12.6 µM [inhibitor, partial curve, poor fit] |
| CC(OC(=O)c1ccccc1NS(=O)(=O)c1cccc(C(F)(F)F)c1)C(=O)N(C)Cc1ccccc1 (stereo not drawn) | inconclusive: 11.2 µM [inhibitor, partial curve, poor fit] |
| Cn1c(=O)c2c(c3ccccc31)OC(=O)CC2c1cccc(F)c1 (stereo not drawn) | inactive |
| Cc1sc(NC(=O)CN2CCOCC2)nc1-c1ccc2c(c1)CCN2S(=O)(=O)c1ccccc1 | inconclusive: 2.59 µM [inhibitor, partial curve, poor fit] |
| O=C(Nc1cccc(Br)c1)c1ccc(Cl)c(S(=O)(=O)N2CCOCC2)c1 | inconclusive: 4.61 µM [inhibitor, partial curve, poor fit] |
| O=C(Cn1c(=O)n(CC2CS2)c2ccccc21)N1CCCCCC1 (stereo not drawn) | inactive |
| CC(=O)Nc1ccc(NS(=O)(=O)c2ccc(-c3csc(C)n3)s2)cc1 | inconclusive: 6.31 µM [inhibitor, single point] |

| SMILES | Potency |
| --- | --- |
| Cc1c(Br)c([N+](=O)[O-])nn1CC(=O)Nc1cccc2nonc12 | inconclusive: 1.26 µM [inhibitor, single point] |
| COc1ccc(C)cc1NC(=O)COC(=O)c1ccccc1SCC(=O)N1CCCC1 | inactive |
| N#C/C(=C\c1ccc(Sc2ccccc2)o1)c1nc2ccccc2[nH]1 | inconclusive: 10 µM [inhibitor, partial curve, poor fit] |
| COc1ccccc1C(c1nnnn1Cc1ccco1)N1CCN(c2cccc(C)c2C)CC1 (stereo not drawn) | active: 9.2 µM |
| O=C(Nc1nnc(-c2ccc3c(c2)CCCC3)o1)c1c(F)cccc1F | inactive |
| C=CCSc1nn2c(=O)c3ccccc3nc2s1 | inconclusive: 16.4 µM [inhibitor, single point] |
| COc1ccc(-c2noc(CNS(=O)(=O)c3ccc(Br)cc3)n2)cc1OC | inactive |
| COC(=O)c1ccc(OC)c(CN2C(=O)N(c3ccc(C(C)=O)cc3)S(=O)(=O)c3ccccc32)c1 | inconclusive: 35.5 µM [inhibitor, single point] |
| Cc1ccc(CNCc2c(C(=O)O)n(Cc3ccc(C)cc3)c3cc(C)ccc23)cc1 | inconclusive: 17.8 µM [inhibitor, single point] |
| O=C(NC1CCCCC1)c1cc2ccccc2cc1O | inactive |
| CCOc1ccc(N(C)Cc2cc(=O)oc3ccc(OC)cc23)cc1 | inconclusive: 10 µM [inhibitor, partial curve, poor fit] |
| COC(=O)C(O)(CC(=O)Nc1ccc(C)c(F)c1)C(F)(F)F (stereo not drawn) | inconclusive: 23.1 µM [activator, single point] |
| COc1ccc(-c2cc3ncc(-c4ccccc4)c(N)n3n2)cc1 | inactive |
| O=C(COc1ncnc2ccc(Br)cc12)N1CCOCC1 | inconclusive: 17.8 µM [activator, single point] |
| Cc1ccc(S(=O)(=O)N(C)C)cc1NC(=S)NC(C)CCCC(C)C (stereo not drawn) | inconclusive: 11.6 µM [inhibitor, single point] |
| Cc1nn(Cc2ccccc2)c(Cl)c1C(=O)OCC(=O)Nc1cccc2ccccc12 | inactive |
| COc1ccc(C(=O)CSc2nnc(-c3cc(C)cc(C)c3)o2)cc1 | inactive |
| O=C(O)CCn1c(SCc2cccc3ccccc23)nc2ccccc21 | inconclusive: 9.2 µM [activator, partial curve, poor fit] |
| Cc1cc(C)cc(NC(=O)CSc2nnc(-c3cc4occc4n3C)n2-c2ccccc2C)c1 | inactive |
| Cc1ccc(S(=O)(=O)c2c(C)nn(C(C)(C)C)c2OC(=O)c2cccs2)cc1 | active: 12.6 µM |
| COc1ccc2cc(CCNS(=O)(=O)c3ccc(NC(C)=O)cc3)c(=O)[nH]c2c1 | inconclusive: 6.31 µM [activator, full curve] |
| O=C1c2ccccc2NC(c2ccco2)N1/N=C/c1ccco1 (stereo not drawn) | inactive |
| COC(=O)COc1ccc(-c2nccc(-c3ccccn3)n2)cc1 | inconclusive: 7.08 µM [inhibitor, partial curve, poor fit] |

Random excerpt: 6 compounds from above

| SMILES | Potency |
| --- | --- |
| COc1ccc(-c2cc3ncc(-c4ccccc4)c(N)n3n2)cc1 | inactive |
| COc1ccccc1C(c1nnnn1Cc1ccco1)N1CCN(c2cccc(C)c2C)CC1 (stereo not drawn) | active: 9.2 µM |
| Cc1ccc(CNCc2c(C(=O)O)n(Cc3ccc(C)cc3)c3cc(C)ccc23)cc1 | inconclusive: 17.8 µM [inhibitor, single point] |
| C=CCSc1nn2c(=O)c3ccccc3nc2s1 | inconclusive: 16.4 µM [inhibitor, single point] |
| Cc1cc(C)cc(NC(=O)CSc2nnc(-c3cc4occc4n3C)n2-c2ccccc2C)c1 | inactive |
| O=C(COc1ncnc2ccc(Br)cc12)N1CCOCC1 | inconclusive: 17.8 µM [activator, single point] |

(next part)

| SMILES | Potency |
| --- | --- |
| Cc1ccc(-n2c(O)c(C=Nc3cc(C)on3)c3ccccc3c2=O)c(C)c1 | inconclusive: 35.5 µM [inhibitor, single point] |
| COc1ccccc1-c1cnn2c(NCCc3ccccc3)cc(C)nc12 | inactive |
| O=C(CN1C(=O)NC2(CCc3ccccc32)C1=O)c1ccc(F)cc1 (stereo not drawn) | inactive |
| COc1ccc(CCNC(=O)c2cc3c(=O)n4ccccc4nc3n(CCN3CCOCC3)c2=N)cc1 | inconclusive: 35.5 µM [inhibitor, single point] |
| O=C(NCCOc1ccccc1)c1cc(C(=O)NCCOc2ccccc2)cc([N+](=O)[O-])c1 | inconclusive: 6.51 µM [inhibitor, full curve] |
| O=C(Nc1cccc(Cl)c1)c1ccc(F)c(S(=O)(=O)N2CCC3(CC2)OCCO3)c1 | inconclusive: 20 µM [inhibitor, partial curve, poor fit] |
| O=C(Nc1ccc2oc(-c3ccncc3)nc2c1)c1ccc([N+](=O)[O-])o1 | inactive |
| CNC(=O)COc1ccc2oc3c(c2c1)CCCC3 | inconclusive: 8.91 µM [activator, partial curve, poor fit] |
| CC(C)n1c(CSCc2ccc(Cl)cc2Cl)n[nH]c1=S | inconclusive: 35.5 µM [inhibitor, single point] |
| Cc1cc(C)cc(NC(=O)N2CCCC2C(=O)Nc2ccc(-n3cnnn3)cc2)c1 (stereo not drawn) | inactive |
| CCOC(=O)c1[nH]c2ccc(OC)cc2c1NC(=S)N1CCN(c2cccc(Cl)c2)CC1 | inactive |
| C[C@@H]1CC[C@H]2C(=O)N3[C@@H](CC[C@@H](C)[C@@H]3c3ccc(-c4ccco4)cc3)C(=O)N2[C@@H]1c1ccc(-c2ccco2)cc1 | inconclusive: 1.19 µM [activator, single point] |
| COC(=O)c1c(NC(=O)CS(=O)(=O)c2ccc(C)cc2)sc2c1CCCC2 | inactive |
| CC(Sc1nc(NCc2ccccc2)nc(N(C)C)n1)C(=O)Nc1ccccc1 (stereo not drawn) | inconclusive: 0.116 µM [inhibitor, full curve, poor fit] |
| CCN(c1ccccc1)S(=O)(=O)c1ccc(C(=O)Nc2ccc(C)cn2)cc1 | inconclusive: 11.2 µM [inhibitor, partial curve, poor fit] |
| CCC(C)N1C(=O)/C(=C/c2ccc3c(c2)CCN3CCCCl)C(=O)NC1=S (stereo not drawn) | inconclusive: 16.4 µM [inhibitor, partial curve, poor fit] |
| Cc1cc(/C=C(\C#N)C(=O)NCc2ccco2)c(C)[nH]1 | inactive |
| Cc1ccccc1Cn1cccc1/C=C1/C(=N)N2C=CSC2=NC1=O | inconclusive: 17.8 µM [inhibitor, single point] |
| CCOC(=O)c1[nH]c2c(c1-c1ccccc1)C(=O)CC(c1ccc(OC)c(OC)c1)C2 (stereo not drawn) | inactive |
| Cc1cccc(-c2noc(CN(C)C(=O)c3ccoc3C)n2)c1 | inactive |
| Cc1ccc(C(=O)Nc2ccc(F)cc2)o1 | inconclusive: 0.355 µM [activator, full curve, poor fit] |
| CC1(C)Cc2ccccc2C(NNC(=O)c2ccccn2)=N1 | inconclusive: 12.6 µM [inhibitor, partial curve, poor fit] |
